Measurements as given in publication doi:10.1101/2022.02.02.478833 (bioRxiv, 2022).
No constants are given. Whether binding was seen depends on the method and setting.

Molecular target: T1, TANGO1 (30-139) from Drosophila melanogaster (Drosophila melanogaster) (UniProt Q9VMA7)
T1 sequence (chain, [U-15N]-enriched): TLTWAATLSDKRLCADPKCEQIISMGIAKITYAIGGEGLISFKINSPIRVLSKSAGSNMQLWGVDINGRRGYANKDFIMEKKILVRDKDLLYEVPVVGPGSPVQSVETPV
Test: NMR titration

binding: no binding
Binder: VPPPVPPRRR (peptide, UniProt Q07889 1149-1158, looked up) [class II PPII helix peptide SOS1 (1149-1158)]
